Some entries share one result that the patent states for a list of compounds.
Test: Tablet dissolution, 1.0% w/v CTAB in 190 mM acetate buffer pH 4.0, USP Type II, 75 rpm
Type: physicochemical
Details: film-coated tablets Batches A-D; pH 4.0 acetate buffer containing 1.0% w/v CTAB

`CC(C)OC(=O)C(C)N[P@](=O)(OC[C@H]1O[C@@H](n2ccc(=O)[nH]c2=O)[C@](C)(F)[C@@H]1O)Oc1ccccc1` (stereo in doubt) [sofosbuvir, (S)-isopropyl 2-(((S)-(((2R,3R,4R,5R)-5-(2,4-dioxo-3,4-dihydropyrimidin-1(2H)-yl)-4-fluoro-3-hydroxy-4-methyltetrahydrofuran-2-yl)methoxy)(phenoxy)phosphoryl)amino)propanoate] showed a dissolution complete after of at most 15 min.
